From PMC9598763, “WDR73 Depletion Destabilizes PIP4K2C Activity and Impairs Focal Adhesion Formation in Galloway–Mowat Syndrome” (Biology, 2022) come the findings set out here.

Protein sequences, listed by entry. Tags and fused reporters are not part of them.
UniProt Q9HCE0: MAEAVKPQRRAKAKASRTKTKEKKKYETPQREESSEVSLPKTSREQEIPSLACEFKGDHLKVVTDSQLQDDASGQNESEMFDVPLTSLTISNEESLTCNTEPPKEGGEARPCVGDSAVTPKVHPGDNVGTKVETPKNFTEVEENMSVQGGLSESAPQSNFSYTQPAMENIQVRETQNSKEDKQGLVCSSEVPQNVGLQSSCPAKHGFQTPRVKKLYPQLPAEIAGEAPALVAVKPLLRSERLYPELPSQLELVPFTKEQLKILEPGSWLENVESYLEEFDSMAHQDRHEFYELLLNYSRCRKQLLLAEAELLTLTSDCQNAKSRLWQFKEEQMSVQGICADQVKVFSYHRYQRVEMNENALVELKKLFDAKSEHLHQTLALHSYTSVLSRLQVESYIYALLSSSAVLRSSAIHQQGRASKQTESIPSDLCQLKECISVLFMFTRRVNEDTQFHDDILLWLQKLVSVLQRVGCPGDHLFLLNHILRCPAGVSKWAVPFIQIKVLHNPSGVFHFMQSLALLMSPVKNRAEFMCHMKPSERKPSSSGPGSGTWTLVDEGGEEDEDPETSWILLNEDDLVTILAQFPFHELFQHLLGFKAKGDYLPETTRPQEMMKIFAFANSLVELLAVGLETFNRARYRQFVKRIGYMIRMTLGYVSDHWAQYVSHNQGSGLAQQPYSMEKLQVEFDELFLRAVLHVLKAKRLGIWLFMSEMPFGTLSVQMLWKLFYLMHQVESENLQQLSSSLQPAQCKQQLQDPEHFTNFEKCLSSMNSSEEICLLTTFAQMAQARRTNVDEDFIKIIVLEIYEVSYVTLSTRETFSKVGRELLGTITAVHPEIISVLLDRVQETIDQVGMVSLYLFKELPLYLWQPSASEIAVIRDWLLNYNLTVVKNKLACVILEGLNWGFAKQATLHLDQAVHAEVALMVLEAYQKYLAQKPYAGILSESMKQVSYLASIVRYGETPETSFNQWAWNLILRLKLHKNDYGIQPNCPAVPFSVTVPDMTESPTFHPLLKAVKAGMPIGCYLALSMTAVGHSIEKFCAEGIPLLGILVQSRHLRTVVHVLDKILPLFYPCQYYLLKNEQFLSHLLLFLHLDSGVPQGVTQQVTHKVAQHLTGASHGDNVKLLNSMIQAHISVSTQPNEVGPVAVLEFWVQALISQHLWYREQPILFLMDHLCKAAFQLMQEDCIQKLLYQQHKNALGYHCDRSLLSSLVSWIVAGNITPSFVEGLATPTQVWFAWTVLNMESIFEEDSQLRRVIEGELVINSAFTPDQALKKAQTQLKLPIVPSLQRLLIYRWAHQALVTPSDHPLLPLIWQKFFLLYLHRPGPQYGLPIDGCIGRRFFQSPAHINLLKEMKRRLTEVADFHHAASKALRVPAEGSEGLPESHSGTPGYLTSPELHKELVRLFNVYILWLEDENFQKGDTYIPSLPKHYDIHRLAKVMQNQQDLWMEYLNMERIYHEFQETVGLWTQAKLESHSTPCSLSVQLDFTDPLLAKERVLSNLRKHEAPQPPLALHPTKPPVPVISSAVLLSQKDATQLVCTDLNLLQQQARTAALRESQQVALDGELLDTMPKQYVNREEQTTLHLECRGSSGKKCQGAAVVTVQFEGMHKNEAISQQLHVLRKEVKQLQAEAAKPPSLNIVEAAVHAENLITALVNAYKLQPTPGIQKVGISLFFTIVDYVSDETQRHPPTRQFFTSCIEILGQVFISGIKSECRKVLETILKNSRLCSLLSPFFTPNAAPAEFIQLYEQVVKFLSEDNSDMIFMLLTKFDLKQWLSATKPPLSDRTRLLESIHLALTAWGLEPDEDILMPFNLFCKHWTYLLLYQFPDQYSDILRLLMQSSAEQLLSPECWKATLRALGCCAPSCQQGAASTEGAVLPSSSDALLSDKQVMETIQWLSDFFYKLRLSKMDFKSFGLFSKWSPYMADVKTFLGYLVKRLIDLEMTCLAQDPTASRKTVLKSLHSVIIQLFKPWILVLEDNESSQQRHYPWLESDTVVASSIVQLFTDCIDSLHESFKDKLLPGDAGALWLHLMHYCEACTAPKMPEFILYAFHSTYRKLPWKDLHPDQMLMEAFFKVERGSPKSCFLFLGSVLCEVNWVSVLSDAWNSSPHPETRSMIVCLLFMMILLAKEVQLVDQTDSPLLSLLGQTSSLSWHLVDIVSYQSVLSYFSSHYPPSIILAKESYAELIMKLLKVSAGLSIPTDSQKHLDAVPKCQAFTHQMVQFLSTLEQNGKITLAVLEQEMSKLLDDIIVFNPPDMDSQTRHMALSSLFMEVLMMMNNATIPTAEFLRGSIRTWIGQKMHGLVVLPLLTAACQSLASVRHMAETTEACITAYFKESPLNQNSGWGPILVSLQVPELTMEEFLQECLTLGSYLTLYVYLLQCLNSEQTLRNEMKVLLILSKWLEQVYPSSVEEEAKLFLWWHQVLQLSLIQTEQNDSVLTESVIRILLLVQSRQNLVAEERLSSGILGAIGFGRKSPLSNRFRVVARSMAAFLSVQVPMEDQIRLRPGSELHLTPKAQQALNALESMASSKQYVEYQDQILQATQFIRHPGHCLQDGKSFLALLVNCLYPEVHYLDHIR

One test deals with T1, 3×HA-WDR73 (human) (UniProt Q6P4I2).
T1 sequence: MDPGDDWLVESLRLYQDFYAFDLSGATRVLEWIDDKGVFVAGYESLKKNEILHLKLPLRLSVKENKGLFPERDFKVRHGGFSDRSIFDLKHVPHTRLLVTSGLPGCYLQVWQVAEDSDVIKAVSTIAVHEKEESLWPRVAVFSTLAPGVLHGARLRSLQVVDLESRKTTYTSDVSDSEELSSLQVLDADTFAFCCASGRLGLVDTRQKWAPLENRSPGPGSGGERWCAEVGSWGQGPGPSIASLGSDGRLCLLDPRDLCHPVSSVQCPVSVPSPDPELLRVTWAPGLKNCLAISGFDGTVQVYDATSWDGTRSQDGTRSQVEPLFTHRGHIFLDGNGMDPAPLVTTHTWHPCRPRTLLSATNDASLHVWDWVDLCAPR
Description: co-IP; HEK293 cells transfected with 3HA-WDR73 and GFP-Epg5 (or GFP); lysis in 20 mM Tris pH 7.5, 150 mM NaCl, 1% Triton X-100; anti-HA magnetic beads, 4 °C overnight; Western blotting. On the technique in general: Immunoblotting shows a protein as a band on a membrane.

Test [1] addresses ectopic P-granules autophagy protein 5 (EPG5) on the HuProt human proteome microarray (human) (UniProt Q9HCE0). Description: peptide or protein array; Cy3-tagged His-WDR73 incubated on the HuProt v4.0 20K Human Proteome Microarray (purified human proteins as N-terminal GST fusions) overnight at 4 °C, washed, scanned; candidates by Z-score > 3; both purified.
Test [2] deals with T2, GST-PIP4K2C fusion protein (UniProt Q8TBX8).
T2 sequence: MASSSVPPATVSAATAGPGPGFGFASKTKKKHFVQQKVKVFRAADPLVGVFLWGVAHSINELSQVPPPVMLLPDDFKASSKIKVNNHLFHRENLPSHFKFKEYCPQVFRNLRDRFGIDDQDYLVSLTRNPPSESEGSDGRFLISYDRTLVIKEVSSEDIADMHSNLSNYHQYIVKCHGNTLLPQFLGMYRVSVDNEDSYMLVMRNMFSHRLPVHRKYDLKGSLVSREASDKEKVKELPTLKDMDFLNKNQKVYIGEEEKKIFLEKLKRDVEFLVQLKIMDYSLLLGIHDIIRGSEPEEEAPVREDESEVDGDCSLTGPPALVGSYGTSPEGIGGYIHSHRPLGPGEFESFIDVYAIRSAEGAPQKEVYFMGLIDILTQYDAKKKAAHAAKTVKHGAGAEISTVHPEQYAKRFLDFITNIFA
Description: pull-down; approximately 100 µg GST or GST-PIP4K2C immobilised on 50 µL Mag-Beads GST; approximately 100 µg His-WDR73 added, overnight at 4 °C; washed five times with PBS; Western blotting; both purified.

Results are given in words; binding and its absence hold for the method and conditions named. For part of these data: Binding seen in cells or lysates may run through a third protein. Some entries that bind do so weakly or less than the wild type. Where a sequence is shown, tags or fusion partners need not be part of it.

With GFP-hEPG5 (from UniProt Q9HCE0 1-2579), in the test with 3×HA-WDR73 (human), the binding result is given as “binds”.

B1: Cy3-tagged His-WDR73 (natural protein, human, UniProt Q6P4I2 1-378, looked up)
chain: MDPGDDWLVESLRLYQDFYAFDLSGATRVLEWIDDKGVFVAGYESLKKNEILHLKLPLRLSVKENKGLFPERDFKVRHGGFSDRSIFDLKHVPHTRLLVTSGLPGCYLQVWQVAEDSDVIKAVSTIAVHEKEESLWPRVAVFSTLAPGVLHGARLRSLQVVDLESRKTTYTSDVSDSEELSSLQVLDADTFAFCCASGRLGLVDTRQKWAPLENRSPGPGSGGERWCAEVGSWGQGPGPSIASLGSDGRLCLLDPRDLCHPVSSVQCPVSVPSPDPELLRVTWAPGLKNCLAISGFDGTVQVYDATSWDGTRSQDGTRSQVEPLFTHRGHIFLDGNGMDPAPLVTTHTWHPCRPRTLLSATNDASLHVWDWVDLCAPR
modifications: labeled with Cy3 (CyDye Protein Labelling CY3 MONO 5-PACK, GE)
notes: WDR73 (WD40-repeat-containing protein), human; Probe of the HuProt microarray; also called recombinant His-WDR73 fusion protein; purified human WDR73 protein; source: recombinant, purified by MerryBio Co., Ltd
B1: the binding result in test [1] is recorded as “binds”.

B2: His-WDR73 fusion protein (protein, UniProt Q6P4I2 1-378)
chain: MDPGDDWLVESLRLYQDFYAFDLSGATRVLEWIDDKGVFVAGYESLKKNEILHLKLPLRLSVKENKGLFPERDFKVRHGGFSDRSIFDLKHVPHTRLLVTSGLPGCYLQVWQVAEDSDVIKAVSTIAVHEKEESLWPRVAVFSTLAPGVLHGARLRSLQVVDLESRKTTYTSDVSDSEELSSLQVLDADTFAFCCASGRLGLVDTRQKWAPLENRSPGPGSGGERWCAEVGSWGQGPGPSIASLGSDGRLCLLDPRDLCHPVSSVQCPVSVPSPDPELLRVTWAPGLKNCLAISGFDGTVQVYDATSWDGTRSQDGTRSQVEPLFTHRGHIFLDGNGMDPAPLVTTHTWHPCRPRTLLSATNDASLHVWDWVDLCAPR
For the molecule B2, the binding entry in test [2] is on record as “binds”.
